Data as given in PubChem BioAssay AID504764 (Drosophila RNAi Screening Center, 2011)
Test: 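Genome-wide screen for regulators of Notch-driven gene expression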 (primary screen). System: Drosophila Kc167 cells. Reagent: long dsRNA against Drosophila genes. Timing: about 5 days (4 days dsRNA, then 24 h after transfection). Treatment: transfection of constitutively active membrane-tethered Notch lacking the extracellular domain, read 24 h later. Measured: 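Light from a Notch-responsive E(spl)m3 luciferase reporter under active Notch, with control-promoter and no-Notch reporter wells to normalise; raw counts from paired wells a and b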. Reading the numbers: induced reporter light, run 1, well a and induced reporter light, run 1, well b: higher = more light from the Notch target reporter with active Notch; control promoter light, run 1, well a and control promoter light, run 1, well b: higher = more light from the viral control promoter (cell number, transfection, viability); uninduced reporter light, run 1, well a: higher = more light from the Notch target reporter without active Notch. Rule for the call: 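Hit if the duplicate-averaged log2 ratio of induced to control-promoter light gives a plate-wise z beyond ±2, or induced to uninduced beyond ±1.8; weak-control or discordant-duplicate wells dropped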. Meaning of the calls: active = modifier hit (raised or lowered Notch signal); inactive = not a hit.
The screen tested about 22,000 reagents; this is an unselected part of those with a known target gene and a result. Over the whole deposit, 403 (1.9%) are marked active. 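Unnormalised raw counts per well; ratio z-scores behind the hit calls and whether each hit raises or lowers signal are not deposited.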 A plus sign joins genes that one reagent is predicted to hit. Reagent sequences are not shown. Not stated in the record: the amount of reagent.

predicted target,amplicon,"induced reporter light, run 1, well a","induced reporter light, run 1, well b","control promoter light, run 1, well a","control promoter light, run 1, well b","uninduced reporter light, run 1, well a",outcome
Taf12L (GeneID 33672),DRSC00467,1.66e5,1.33e5,1.69e5,1.43e5,11155,inactive
CG5909 (GeneID 43274),DRSC15914,1.27e5,1.40e5,2.14e5,1.97e5,11915,inactive
Chc (GeneID 32537),DRSC20229,1.47e5,1.36e5,1.70e5,1.67e5,9295,inactive
Mp20 (GeneID 36468),DRSC07474,93275,1.18e5,1.20e5,1.05e5,9255,inactive
CG12464 (GeneID 36516),DRSC06156,1.02e5,93005,1.32e5,1.20e5,9455,inactive
Tace (GeneID 43558),DRSC16340,1.72e5,1.80e5,2.88e5,3.02e5,15700,inactive
Tango1 (GeneID 33930),DRSC02127,1.34e5,1.46e5,1.43e5,1.70e5,12100,inactive
CG10444 (GeneID 37294),DRSC05990,81995,65620,1.44e5,1.74e5,6488,inactive
gw (GeneID 43808),DRSC17135,47145,48930,92665,1.17e5,4175,active
gw (GeneID 43808),DRSC17160,10725,10882,22010,24180,1825,inactive
Nepl3 (GeneID 326172),DRSC02681,1.60e5,1.77e5,1.72e5,1.80e5,18830,inactive
CG15601 (GeneID 32509),DRSC19670,94860,91615,78335,68050,10615,inactive
Hsf (GeneID 37068),DRSC07443,96945,1.04e5,1.63e5,2.14e5,7780,inactive
Obp28a (GeneID 34031),DRSC03394,1.51e5,1.23e5,2.41e5,2.00e5,9195,active
Creld (GeneID 33166),DRSC00308,1.23e5,1.47e5,97590,67430,9415,inactive
Daao2 (GeneID 33955),DRSC02135,1.45e5,1.40e5,1.55e5,1.61e5,14645,inactive
Nepl8 (GeneID 34983),DRSC02759,1.48e5,1.60e5,1.37e5,1.50e5,12815,inactive
CG8401 (GeneID 36770),DRSC07165,1.06e5,1.05e5,1.99e5,2.29e5,8720,inactive
CG9173 (GeneID 38165),DRSC08635,91470,1.05e5,1.58e5,1.23e5,6300,inactive
Acp1 (GeneID 34052),DRSC01854,95705,1.45e5,97960,1.22e5,18415,inactive
EloA (GeneID 42749),DRSC16109,80290,95625,1.08e5,1.02e5,10400,inactive
lin (GeneID 45325),DRSC07644,1.81e5,2.36e5,2.45e5,2.50e5,17882,inactive
CG13197 (GeneID 36253),DRSC06322,82095,1.00e5,1.24e5,1.09e5,8375,inactive
mAcon1 (GeneID 44149),DRSC01853,36370,28235,44220,42325,2380,inactive
CG17821 (GeneID 37159),DRSC06696,1.22e5,97545,1.01e5,1.29e5,8355,inactive
abd-A (GeneID 42037),DRSC13179,10240,11040,5750,5955,3515,inactive
abd-A (GeneID 42037),DRSC16897,11825,11720,12085,14370,3382,inactive
Mink (GeneID 42982),DRSC14291,1.33e5,1.31e5,1.88e5,1.88e5,13180,inactive
nompA (GeneID 45587),DRSC06329,91350,1.06e5,1.34e5,99215,9255,inactive
Kap3 (GeneID 32071),DRSC19426,2.07e5,1.67e5,2.54e5,2.06e5,13595,inactive
Reck (GeneID 39629),DRSC10504,1.22e5,1.35e5,73745,91690,8955,inactive
Reck (GeneID 39629),DRSC10505,2.41e5,2.18e5,2.64e5,2.88e5,9038,inactive
CG12278 (GeneID 42486),DRSC14494,1.50e5,1.52e5,1.44e5,1.44e5,11680,inactive
Blos1 (GeneID 246439),DRSC05970,1.09e5,1.06e5,1.38e5,1.34e5,9382,inactive
Edg91 (GeneID 42117),DRSC16657,1.91e5,2.52e5,2.23e5,2.26e5,16825,inactive
CG2209 (GeneID 32250),DRSC19843,1.08e5,1.15e5,1.97e5,2.05e5,7742,inactive
CG33099 (GeneID 326254),DRSC15774,1.61e5,1.58e5,2.80e5,2.07e5,13270,inactive
TotA (GeneID 44121),DRSC13448,65445,49770,67000,53120,9285,inactive
CG7653 (GeneID 34935),DRSC01886,1.33e5,1.32e5,1.60e5,1.93e5,10100,inactive
CG43333 (GeneID 34830),DRSC01917,99060,1.18e5,80005,88720,9925,inactive
Tsp42Eh (GeneID 35617),DRSC06190,1.26e5,1.41e5,2.05e5,1.71e5,12210,inactive
CG7568 (GeneID 43482),DRSC16259,1.81e5,1.75e5,2.58e5,2.15e5,15165,inactive
18w (GeneID 37277),DRSC05029,1.06e5,1.32e5,1.97e5,2.19e5,9405,inactive
CG31560 (GeneID 40772),DRSC12136,34910,63445,42600,39700,2320,inactive
Cyp4ac3 (GeneID 33756),DRSC03304,1.86e5,1.96e5,2.06e5,2.20e5,20145,inactive
Tsf1 (GeneID 32821),DRSC20296,65160,62260,71530,46380,8500,inactive
Sox15 (GeneID 36575),DRSC07555,94840,88655,1.21e5,1.26e5,8785,inactive
Acp76A (GeneID 40078),DRSC09665,83925,69390,94515,95355,6975,inactive
I-t (GeneID 41414),DRSC16713,1.13e5,1.07e5,1.06e5,71400,6370,inactive
Oatp30B (GeneID 34268),DRSC02727,3.09e5,2.84e5,2.06e5,1.81e5,22305,inactive
TrxT (GeneID 31443),DRSC22182,,,,,,inactive
CG42735 (retired record) (GeneID 10178938),DRSC00921,1.26e5,1.01e5,1.53e5,1.68e5,8395,inactive
DNAlig4 (GeneID 32322),DRSC19436,57875,65685,70680,51055,5435,inactive
CG42512 + CG32573,DRSC19532,55360,40710,63835,64070,7605,inactive
CG42512 + CG32573,DRSC19906,1.30e5,1.17e5,1.07e5,75130,8875,inactive
CG42675 (GeneID 40722),DRSC12157,1.49e5,1.12e5,1.01e5,73130,9595,inactive
CG33307 (GeneID 2768914),DRSC01349,1.24e5,1.11e5,1.79e5,1.42e5,10760,inactive
CG32428 (GeneID 50105),DRSC11697,19315,20755,9785,11770,4920,inactive
CG32428 (GeneID 50105),DRSC11768,1.29e5,90070,1.14e5,1.04e5,8470,inactive
Ir84a (GeneID 40891),DRSC12510,1.08e5,1.31e5,93975,76550,5410,inactive
Dg (GeneID 36773),DRSC06718,80040,82475,99820,97680,5870,inactive
RpS17 (GeneID 39088),DRSC11271,35685,44835,59335,45130,1185,active
y (GeneID 30980),DRSC18853,1.25e5,1.30e5,1.93e5,2.71e5,10400,inactive
bi (GeneID 31379),DRSC18742,1.79e5,1.72e5,3.28e5,2.61e5,12540,inactive

Quoted from above, 8 entries:
predicted target,amplicon,"induced reporter light, run 1, well a","induced reporter light, run 1, well b","control promoter light, run 1, well a","control promoter light, run 1, well b","uninduced reporter light, run 1, well a",outcome
CG13197 (GeneID 36253),DRSC06322,82095,1.00e5,1.24e5,1.09e5,8375,inactive
mAcon1 (GeneID 44149),DRSC01853,36370,28235,44220,42325,2380,inactive
CG17821 (GeneID 37159),DRSC06696,1.22e5,97545,1.01e5,1.29e5,8355,inactive
abd-A (GeneID 42037),DRSC13179,10240,11040,5750,5955,3515,inactive
abd-A (GeneID 42037),DRSC16897,11825,11720,12085,14370,3382,inactive
Mink (GeneID 42982),DRSC14291,1.33e5,1.31e5,1.88e5,1.88e5,13180,inactive
nompA (GeneID 45587),DRSC06329,91350,1.06e5,1.34e5,99215,9255,inactive
Kap3 (GeneID 32071),DRSC19426,2.07e5,1.67e5,2.54e5,2.06e5,13595,inactive
